According to patent US11401303B2, “Synthetic peptide BRAP and application in preparation of anti-inflammatory drug for COVID-19 thereof” (TAIAN CITY QIHANG BIOTECHNOLOGY CO., priority 2020, dated 2022):
For at least one compound, name, drawing or mass did not settle the structure.

Test system: LPS-induced acute lung injury
Experiment: LPS-induced acute lung injury in mice, HE pathological examination of lung tissues
Format: in vivo, Balb/C mice
Conditions: 5 mg/kg intraperitoneally once a day; LPS 5 mg/kgBW i.p.
Protocol: 1. Grade-SPF male Balb/C mice, body weight: 20±2 g, and n=48
3. Grouping and treatment: mice were randomly divided into 8 groups (A-H), 6 pcs./group;
3-1: 3 different treatments were given for 3 consecutive days respectively before modeling:
A. normal control group: normal saline was injected via the tail vein for once/day;
B. LPS model group: normal saline was injected via the tail vein for once/day;
C. model sp2 administration group: sp2 (16 mg/kgBW) was injected via the tail vein for once/day;
D. model high-dose brap administration group: brap (16 mg/kgBW) was injected via the tail vein for once/day;
E. model medium-dose brap administration group: brap (8 mg/kgBW) was injected via the tail vein for once/day;
F. model low-dose brap administration group: brap (4 mg/kgBW) was injected via the tail vein for once/day;
G. model brap intranasal administration group: brap (3 mM) was administered nasal administration on both sides, 15 μl/each side; once a day;
H. model dexamethasone administration group (a positive control group): dexamethasone, DEX, 5 mg/kg was injected intraperitoneally for once a day.
Animals from groups A-H were continuously administered the above treatments for 30 min respectively, then group A was intraperitoneally injected isopyknic normal saline, and other groups were intraperitoneally injected LPS 5 mg/kgBW.
1. Tissue section and extending
2. […]

C[C@@H]1C[C@H]2[C@@H]3CCC4=CC(=O)C=C[C@]4(C)[C@@]3(F)[C@@H](O)C[C@]2(C)[C@@]1(O)C(=O)CO [dexamethasone, reference compound]
Lung tissue pathology (HE): inflammatory cell infiltration is more obvious, and no focal fusion of pulmonary septum is found
